This is one part of the list. Small differences around the control level are noise.

Chains of the proteins cited; added tags and fusions are not shown. Lines headed by an entry give the natural chain unless they say otherwise; changes in a name come on top.
UniProt Q96EN9: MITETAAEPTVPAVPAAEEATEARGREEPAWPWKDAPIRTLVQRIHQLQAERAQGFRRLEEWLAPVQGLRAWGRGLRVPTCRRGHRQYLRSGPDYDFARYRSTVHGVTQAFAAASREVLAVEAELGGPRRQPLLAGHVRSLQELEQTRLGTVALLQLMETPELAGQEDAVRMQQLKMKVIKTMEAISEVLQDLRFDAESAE
UniProt Q96BX8: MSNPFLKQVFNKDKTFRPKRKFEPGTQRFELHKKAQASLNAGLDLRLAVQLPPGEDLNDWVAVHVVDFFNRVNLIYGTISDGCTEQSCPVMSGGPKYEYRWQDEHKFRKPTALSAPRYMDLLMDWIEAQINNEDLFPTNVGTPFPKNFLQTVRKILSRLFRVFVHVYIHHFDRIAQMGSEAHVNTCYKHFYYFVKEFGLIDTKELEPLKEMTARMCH
UniProt Q92966: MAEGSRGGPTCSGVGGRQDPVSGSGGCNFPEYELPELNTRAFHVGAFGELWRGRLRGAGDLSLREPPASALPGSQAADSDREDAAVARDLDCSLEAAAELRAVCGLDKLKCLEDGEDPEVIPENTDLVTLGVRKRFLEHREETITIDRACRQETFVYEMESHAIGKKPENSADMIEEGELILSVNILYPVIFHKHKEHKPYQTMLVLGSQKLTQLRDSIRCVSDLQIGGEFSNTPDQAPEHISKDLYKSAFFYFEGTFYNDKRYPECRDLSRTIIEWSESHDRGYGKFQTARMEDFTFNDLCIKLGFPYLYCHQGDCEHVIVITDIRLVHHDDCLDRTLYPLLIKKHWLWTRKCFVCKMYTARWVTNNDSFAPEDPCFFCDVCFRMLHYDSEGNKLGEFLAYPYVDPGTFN
UniProt Q96C24: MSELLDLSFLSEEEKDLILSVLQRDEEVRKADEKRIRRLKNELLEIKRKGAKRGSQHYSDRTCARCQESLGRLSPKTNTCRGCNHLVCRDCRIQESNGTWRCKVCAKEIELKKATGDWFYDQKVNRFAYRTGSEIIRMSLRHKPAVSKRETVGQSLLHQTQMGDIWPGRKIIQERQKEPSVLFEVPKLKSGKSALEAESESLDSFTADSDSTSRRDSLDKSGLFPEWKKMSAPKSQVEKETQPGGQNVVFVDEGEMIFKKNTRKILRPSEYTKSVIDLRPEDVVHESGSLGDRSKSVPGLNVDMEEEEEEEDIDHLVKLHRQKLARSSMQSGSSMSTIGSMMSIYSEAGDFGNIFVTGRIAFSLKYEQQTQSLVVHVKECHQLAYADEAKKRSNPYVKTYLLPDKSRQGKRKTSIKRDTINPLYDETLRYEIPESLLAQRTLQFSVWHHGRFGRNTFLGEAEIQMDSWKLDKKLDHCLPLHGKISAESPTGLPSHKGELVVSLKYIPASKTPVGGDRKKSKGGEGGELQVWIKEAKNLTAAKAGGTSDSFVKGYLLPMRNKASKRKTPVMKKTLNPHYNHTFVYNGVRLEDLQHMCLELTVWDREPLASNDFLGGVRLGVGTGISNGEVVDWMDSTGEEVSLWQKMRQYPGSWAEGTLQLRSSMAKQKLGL
UniProt Q92930: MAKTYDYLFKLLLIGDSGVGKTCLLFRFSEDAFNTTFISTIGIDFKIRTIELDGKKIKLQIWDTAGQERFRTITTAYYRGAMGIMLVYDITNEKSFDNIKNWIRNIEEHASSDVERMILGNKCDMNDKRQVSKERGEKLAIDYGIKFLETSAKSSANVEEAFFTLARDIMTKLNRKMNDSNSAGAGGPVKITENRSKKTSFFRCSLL
UniProt Q969K3: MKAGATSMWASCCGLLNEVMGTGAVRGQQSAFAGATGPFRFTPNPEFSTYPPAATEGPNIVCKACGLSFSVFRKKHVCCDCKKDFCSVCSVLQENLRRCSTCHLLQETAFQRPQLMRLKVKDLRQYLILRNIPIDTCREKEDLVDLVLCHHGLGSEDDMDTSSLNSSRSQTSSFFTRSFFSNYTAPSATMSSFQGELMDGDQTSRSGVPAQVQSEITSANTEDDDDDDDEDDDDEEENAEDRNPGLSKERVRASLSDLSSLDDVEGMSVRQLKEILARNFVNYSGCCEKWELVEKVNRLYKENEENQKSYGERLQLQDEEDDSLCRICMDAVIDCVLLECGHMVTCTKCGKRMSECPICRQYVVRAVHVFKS
UniProt Q92871: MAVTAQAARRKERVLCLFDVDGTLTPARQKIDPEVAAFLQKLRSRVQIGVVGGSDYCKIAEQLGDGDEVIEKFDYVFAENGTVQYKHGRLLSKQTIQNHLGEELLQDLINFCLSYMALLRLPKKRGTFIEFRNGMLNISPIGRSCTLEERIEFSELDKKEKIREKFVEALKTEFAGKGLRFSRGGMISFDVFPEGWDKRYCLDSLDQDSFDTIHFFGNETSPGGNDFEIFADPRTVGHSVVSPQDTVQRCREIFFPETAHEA
UniProt Q96B97, whole entry: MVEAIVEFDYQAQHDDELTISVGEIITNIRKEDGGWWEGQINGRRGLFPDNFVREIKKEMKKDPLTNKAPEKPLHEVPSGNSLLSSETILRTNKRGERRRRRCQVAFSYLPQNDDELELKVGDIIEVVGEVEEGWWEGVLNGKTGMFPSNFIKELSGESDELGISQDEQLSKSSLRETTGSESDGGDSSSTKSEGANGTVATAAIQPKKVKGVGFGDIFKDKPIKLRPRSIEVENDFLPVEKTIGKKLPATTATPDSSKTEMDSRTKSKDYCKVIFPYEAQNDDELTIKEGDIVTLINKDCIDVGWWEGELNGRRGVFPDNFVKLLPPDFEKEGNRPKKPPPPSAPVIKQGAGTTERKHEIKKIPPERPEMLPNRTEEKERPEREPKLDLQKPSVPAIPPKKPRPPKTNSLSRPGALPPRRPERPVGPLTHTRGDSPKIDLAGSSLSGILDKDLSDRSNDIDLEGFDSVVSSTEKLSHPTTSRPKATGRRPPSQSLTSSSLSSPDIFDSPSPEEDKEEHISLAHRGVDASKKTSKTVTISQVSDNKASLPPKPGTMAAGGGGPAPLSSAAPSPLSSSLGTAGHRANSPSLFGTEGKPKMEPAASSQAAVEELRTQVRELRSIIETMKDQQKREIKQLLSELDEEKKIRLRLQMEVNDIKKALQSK
UniProt Q96DB5: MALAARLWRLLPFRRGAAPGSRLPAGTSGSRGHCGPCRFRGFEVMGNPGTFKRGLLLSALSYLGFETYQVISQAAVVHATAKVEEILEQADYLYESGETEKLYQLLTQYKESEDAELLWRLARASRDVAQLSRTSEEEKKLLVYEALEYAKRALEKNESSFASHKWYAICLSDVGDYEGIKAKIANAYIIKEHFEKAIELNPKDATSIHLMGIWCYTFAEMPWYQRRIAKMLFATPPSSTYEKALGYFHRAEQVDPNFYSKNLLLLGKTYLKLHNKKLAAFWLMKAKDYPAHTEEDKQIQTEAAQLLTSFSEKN

Compound in this assay: CN[C@@H]1C[C@H]2O[C@@](C)([C@@H]1OC)n1c3ccccc3c3c4c(c5c6ccccc6n2c5c31)C(=O)NC4 [staurosporine]
Description: log2 fold change of tryptic peptide abundance, ligand vs vehicle (limited proteolysis) (log2 ratio); higher = more trypsin-susceptible (destabilized). Conditions: ligand concentration: 20 uM; sample: K562 cleared lysate; digestion: 4 min, 22 C (HT-PELSA RT4min, Orbitrap Astral).
In the case of “REX1BD (peptide sequence: IHQLQAER, peptide start residue: 45) (UniProt Q96EN9)”, the log2 fold change was -0.552.
Next, “UniProt Q96BX8 (peptide sequence: DKTFRPK, peptide start residue: 12)”: 0.207; “SNAPC3 (peptide sequence: AVCGLDKLK, peptide start residue: 102) (UniProt Q92966)”: 0.147; “SYTL4 (peptide sequence: QKEPSVLFEVPK, peptide start residue: 176) (UniProt Q96C24)”: -0.366.
Consider “RAB8B (peptide sequence: MNDSNSAGAGGPVK, peptide start residue: 177) (UniProt Q92930)”, for which the log2 fold change was 0.00195.
Consider “RNF34 (peptide sequence: SQTSSFFTR, peptide start residue: 169) (UniProt Q969K3)”, for which the log2 fold change is -0.0868.
Next, “PMM1 (peptide sequence: NGMLNISPIGR, peptide start residue: 133) (UniProt Q92871)”: 0.23; “SH3KBP1 (peptide sequence: GVGFGDIFKDKPIK, peptide start residue: 212) (UniProt Q96B97)”: 0.344; “UniProt Q96DB5 (peptide sequence: LLVYEALEYAKR, peptide start residue: 141)”: 0.41.

The values are drawn from the supplement of paper PMC12819154, “High-throughput peptide-centric local stability assay extends protein–ligand identification to membrane proteins, tissues and bacteria” (Nature Structural & Molecular Biology, 2025).
